# Literature values as cited in patent US20220160704A2, “COMPOSITIONS FOR OPIATE AND OPIOID PREVENTION AND REVERSAL, AND METHODS OF THEIR USE” (Torralva Medical Therapeutics LLC, priority 2018, published 2022).
# Conditions: cited from earlier work
compound,measurement,setting,value
"C=CCN1CC[C@]23c4c5ccc(O)c4O[C@H]2C(=O)CC[C@@]3(O)[C@H]1C5.Cl [Naloxone hydrochloride, 17-Allyl-4,5α-epoxy-3,14-dihydroxymorphinan-6-one hydrochloride]",Complications of high dose in active opioid users,e.g. 0.2 mg/kg,"regularly precipitate severe cardiac arrhythmias, hemodynamic instability and pulmonary edema"
same,Duration of withdrawal symptoms in naloxone challenge test,"human, in vivo",5 to 10 min
